For at least one entry, the source does not settle the construct or the ends of the probe. For some assays here: Weaker means in comparison with the reference protein, sequence or condition of that experiment. For some assays here: At least one verdict was read from the data and is not stated in words by the source.

For series [1], the target named is DnaA I190A (Bacillus subtilis) (UniProt P05648). Put plainly: EMSA. The following applies: 1 mM ATP, less high molecular weight species, no Cy5 strand release; EMSA: 25 nM scaffold, 0-250 nM DnaA, 10 mM HEPES-KOH pH 8, 100 mM potassium glutamate, 1 mM magnesium acetate, 30% glycerol, 10% DMSO, 1 mM ADP or ATP, 20°C 2 h; recombinant protein; protein details: N-terminal His-tag removed with Factor Xa; label: 5' Cy3 on strand 1, 5' Cy5 on strand 2.

In series [2] the target is DnaA wild-type (Bacillus subtilis) (UniProt P05648). Put plainly: EMSA. The settings on record: 1 mM ADP; EMSA: 25 nM scaffold, 0-250 nM DnaA, 10 mM HEPES-KOH pH 8, 100 mM potassium glutamate, 1 mM magnesium acetate, 30% glycerol, 10% DMSO, 1 mM ADP or ATP, 20°C 2 h; recombinant protein; protein details: N-terminal His-tag removed with Factor Xa; label: 5' Cy5 on strand 2.

For the sequence “ACTTATCCACAAATCCACAGGCCC / TACTATTACTTCTACTA / TAGTAGAAGTAATAGTAGGGCCTGTGGATTTGTGGATAAGT”, the binding result in series [1] is listed as “binds more weakly”. On to “CGTTCGGCTGCGGCGAGCGGTATCAGCTCACTCAAAGGCGGTAATACGGTTATCCACAAATCCACAGGCCC / TACTATTACTTCTACTA / TAGTAGAAGTAATAGTAGGGCCTGTGGATTTGTGGATAACCGTATTACCGCCTTTGAGTGAGCTGATACCGCTCGCCGCAGCCGAACG [Wild-type long scaffold, oHM616/oHM590/oHM615]”, for which, in series [2], the binding result is given as “binds”.

(Values after paper PMC6669920.)
